From PMC8593051

Molecular target: T1, WDR63 (endogenous, mouse testicular extracts) (mouse (endogenous in testis)) (UniProt B2RY71)
T1 sequence: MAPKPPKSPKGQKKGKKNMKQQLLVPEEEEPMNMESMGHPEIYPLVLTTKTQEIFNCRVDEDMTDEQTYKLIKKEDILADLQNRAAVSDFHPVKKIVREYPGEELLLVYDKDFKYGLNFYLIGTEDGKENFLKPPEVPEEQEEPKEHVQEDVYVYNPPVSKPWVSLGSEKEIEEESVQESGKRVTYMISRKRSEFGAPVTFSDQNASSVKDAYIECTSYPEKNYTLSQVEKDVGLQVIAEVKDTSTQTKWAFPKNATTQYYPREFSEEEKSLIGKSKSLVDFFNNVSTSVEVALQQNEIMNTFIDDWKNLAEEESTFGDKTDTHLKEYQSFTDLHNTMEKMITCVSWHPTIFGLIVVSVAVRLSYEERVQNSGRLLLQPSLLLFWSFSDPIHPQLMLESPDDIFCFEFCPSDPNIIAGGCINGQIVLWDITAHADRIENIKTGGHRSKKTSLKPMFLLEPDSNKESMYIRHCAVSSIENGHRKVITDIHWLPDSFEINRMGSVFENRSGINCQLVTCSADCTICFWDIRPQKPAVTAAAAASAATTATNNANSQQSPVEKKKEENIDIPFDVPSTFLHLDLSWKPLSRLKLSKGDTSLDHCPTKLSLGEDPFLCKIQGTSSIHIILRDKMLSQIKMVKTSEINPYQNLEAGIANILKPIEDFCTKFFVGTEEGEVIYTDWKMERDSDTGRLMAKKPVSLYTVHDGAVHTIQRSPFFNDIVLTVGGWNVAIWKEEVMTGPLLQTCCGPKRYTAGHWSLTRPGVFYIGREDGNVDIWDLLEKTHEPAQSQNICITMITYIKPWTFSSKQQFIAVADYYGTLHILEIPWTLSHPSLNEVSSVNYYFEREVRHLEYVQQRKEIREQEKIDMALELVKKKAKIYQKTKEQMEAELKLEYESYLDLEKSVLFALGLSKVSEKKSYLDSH
Assay: co-IP; co-IP followed by immunoblotting for DNAH2 and DNAH10 (Supplementary Fig. S5d); sample and precipitating antibody not given

In the case of DNAH10, the binding is reported as “no binding”.

No constants are given. Whether binding was seen depends on the method and setting. In cells and extracts the contact can be indirect.
